One compound from patent US20180344725A1, “QUINOLONE CHALCONE COMPOUNDS AND USES THEREOF” (priority 2015, published 2018) can be followed below.

Common to all, as to format: cell-based
One test relates to SW-1271. The test is described as follows: SRB-based cytotoxicity assay. As to conditions: SW1271. As to the method: (§1) All of the cell lines used were purchased from ATCC and cultured in RPMI-1640 supplemented with 10% fetal bovine serum and antibiotics (100 units penicillin/100 μg/ml streptomycin), unless stated otherwise. 1845B5 and MCF-10A non-cancer breast cell lines were cultured in DME/F12 medium supplemented with 10% fetal bovine serum, antibiotics and growth factors. […] The human small cell lung carcinoma H69 cell line and its multidrug-resistant MRP1-overexpressing isogenic H69AR cell line were purchased from ATCC. […] H69 cells grow as large multi-cell aggregates, making it difficult to accurately count cell numbers. […] The IL-6 dependent bortezomib-resistant ANBL6-BR cell line was further supplemented with 1 ng/ml of IL-6. The MCF10AT1 and MCF10CA1a cell lines are isogenic to the MCF10A cell line, and obtained from Dr. Valerie Weaver at the Center for Bioengineering and Tissue Regeneration, UCSF, CA, USA. MCF10AT1 is a premalignant cell line generated by transforming MCF10A with c-Ha-Ras; and MCF10CA1a was isolated by selecting malignant cells after MCF10AT1 cells were engrafted into mice (Liu & Lin 2004; […] et al. 2009). […] The drug-resistant cells were cultured in the absence of drug for at least one passage before carrying out experiments. All cells were maintained in a humidified incubator at 37° C. […] Cell line authentication was performed using short tandem repeat (STR) profiling. For (anti)proliferation assays, 4,000-5,000 cells/well of the 96-well clustered dish were incubated for 16 hours, as described previously (Hu et al., 2008; Skehan et al., 1990). […] Cell growth (inhibition) was calculated by the following formula: % cells proliferation=[(AT-CT)/(ST-CT)]×100 wherein AT=absorbance of treated cells, CT=absorbance of negative control cells, and ST=absorbance of sham treated cells. […] The combinational index (CI) was calculated as described previously (Chou 2006). […] CI values were determined from four independent experiments.

The test system of the next test is KB-C-1. The test is described as follows: SRB-based cytotoxicity assay. As to conditions: Homo sapiens, KBC-1. As to the method:
as §1

A further test deals with H69AR. Put plainly: SRB-based cytotoxicity assay. As to conditions: Homo sapiens. As to the method:
as §1

In another test the test system is KB-C-2. The test is described as follows: SRB-based cytotoxicity assay, single and combination with paclitaxel. To be noted: Homo sapiens, KB-C2. As to the method:
All of the cell lines used were purchased from ATCC and cultured in RPMI-1640 supplemented with 10% fetal bovine serum and antibiotics (100 units penicillin/100 μg/ml streptomycin), unless stated otherwise. 1845B5 and MCF-10A non-cancer breast cell lines were cultured in DME/F12 medium supplemented with 10% fetal bovine serum, antibiotics and growth factors. […] The human small cell lung carcinoma H69 cell line and its multidrug-resistant MRP1-overexpressing isogenic H69AR cell line were purchased from ATCC. […] H69 cells grow as large multi-cell aggregates, making it difficult to accurately count cell numbers. […] The IL-6 dependent bortezomib-resistant ANBL6-BR cell line was further supplemented with 1 ng/ml of IL-6. The MCF10AT1 and MCF10CA1a cell lines are isogenic to the MCF10A cell line, and obtained from Dr. Valerie Weaver at the Center for Bioengineering and Tissue Regeneration, UCSF, CA, USA. […] Cell growth (inhibition) was calculated by the following formula: % cells proliferation=[(AT-CT)/(ST-CT)]×100 wherein AT=absorbance of treated cells, CT=absorbance of negative control cells, and ST=absorbance of sham treated cells. […] The combinational index (CI) was calculated as described previously (Chou 2006). […] CI values were determined from four independent experiments.

Structures are written as SMILES.

As to `COc1cc2c(c(OC)c1OC)-c1ccc(OC)c(=O)cc1[C@@H](NC(C)=O)CC2` [Colchicine, reference compound], the IC50 (as a rule, the midpoint of a concentration-inhibition curve) with SW-1271 was 4.84 ± 0.8 nM; with KB-C-1, 5.36 ± 0.54 nM; with H69AR, 23 ± 3.63 nM; in the test on KB-C-2 it was 83.5 ± 7.22 nM.
